The exact form of at least one protein or probe is not confirmed. Results from cells or extracts need not show a direct contact.

Sequences of proteins named here, by UniProt entry; tags and fusion partners are left off.
UniProt A0A2K5X4G5, entry or part of it: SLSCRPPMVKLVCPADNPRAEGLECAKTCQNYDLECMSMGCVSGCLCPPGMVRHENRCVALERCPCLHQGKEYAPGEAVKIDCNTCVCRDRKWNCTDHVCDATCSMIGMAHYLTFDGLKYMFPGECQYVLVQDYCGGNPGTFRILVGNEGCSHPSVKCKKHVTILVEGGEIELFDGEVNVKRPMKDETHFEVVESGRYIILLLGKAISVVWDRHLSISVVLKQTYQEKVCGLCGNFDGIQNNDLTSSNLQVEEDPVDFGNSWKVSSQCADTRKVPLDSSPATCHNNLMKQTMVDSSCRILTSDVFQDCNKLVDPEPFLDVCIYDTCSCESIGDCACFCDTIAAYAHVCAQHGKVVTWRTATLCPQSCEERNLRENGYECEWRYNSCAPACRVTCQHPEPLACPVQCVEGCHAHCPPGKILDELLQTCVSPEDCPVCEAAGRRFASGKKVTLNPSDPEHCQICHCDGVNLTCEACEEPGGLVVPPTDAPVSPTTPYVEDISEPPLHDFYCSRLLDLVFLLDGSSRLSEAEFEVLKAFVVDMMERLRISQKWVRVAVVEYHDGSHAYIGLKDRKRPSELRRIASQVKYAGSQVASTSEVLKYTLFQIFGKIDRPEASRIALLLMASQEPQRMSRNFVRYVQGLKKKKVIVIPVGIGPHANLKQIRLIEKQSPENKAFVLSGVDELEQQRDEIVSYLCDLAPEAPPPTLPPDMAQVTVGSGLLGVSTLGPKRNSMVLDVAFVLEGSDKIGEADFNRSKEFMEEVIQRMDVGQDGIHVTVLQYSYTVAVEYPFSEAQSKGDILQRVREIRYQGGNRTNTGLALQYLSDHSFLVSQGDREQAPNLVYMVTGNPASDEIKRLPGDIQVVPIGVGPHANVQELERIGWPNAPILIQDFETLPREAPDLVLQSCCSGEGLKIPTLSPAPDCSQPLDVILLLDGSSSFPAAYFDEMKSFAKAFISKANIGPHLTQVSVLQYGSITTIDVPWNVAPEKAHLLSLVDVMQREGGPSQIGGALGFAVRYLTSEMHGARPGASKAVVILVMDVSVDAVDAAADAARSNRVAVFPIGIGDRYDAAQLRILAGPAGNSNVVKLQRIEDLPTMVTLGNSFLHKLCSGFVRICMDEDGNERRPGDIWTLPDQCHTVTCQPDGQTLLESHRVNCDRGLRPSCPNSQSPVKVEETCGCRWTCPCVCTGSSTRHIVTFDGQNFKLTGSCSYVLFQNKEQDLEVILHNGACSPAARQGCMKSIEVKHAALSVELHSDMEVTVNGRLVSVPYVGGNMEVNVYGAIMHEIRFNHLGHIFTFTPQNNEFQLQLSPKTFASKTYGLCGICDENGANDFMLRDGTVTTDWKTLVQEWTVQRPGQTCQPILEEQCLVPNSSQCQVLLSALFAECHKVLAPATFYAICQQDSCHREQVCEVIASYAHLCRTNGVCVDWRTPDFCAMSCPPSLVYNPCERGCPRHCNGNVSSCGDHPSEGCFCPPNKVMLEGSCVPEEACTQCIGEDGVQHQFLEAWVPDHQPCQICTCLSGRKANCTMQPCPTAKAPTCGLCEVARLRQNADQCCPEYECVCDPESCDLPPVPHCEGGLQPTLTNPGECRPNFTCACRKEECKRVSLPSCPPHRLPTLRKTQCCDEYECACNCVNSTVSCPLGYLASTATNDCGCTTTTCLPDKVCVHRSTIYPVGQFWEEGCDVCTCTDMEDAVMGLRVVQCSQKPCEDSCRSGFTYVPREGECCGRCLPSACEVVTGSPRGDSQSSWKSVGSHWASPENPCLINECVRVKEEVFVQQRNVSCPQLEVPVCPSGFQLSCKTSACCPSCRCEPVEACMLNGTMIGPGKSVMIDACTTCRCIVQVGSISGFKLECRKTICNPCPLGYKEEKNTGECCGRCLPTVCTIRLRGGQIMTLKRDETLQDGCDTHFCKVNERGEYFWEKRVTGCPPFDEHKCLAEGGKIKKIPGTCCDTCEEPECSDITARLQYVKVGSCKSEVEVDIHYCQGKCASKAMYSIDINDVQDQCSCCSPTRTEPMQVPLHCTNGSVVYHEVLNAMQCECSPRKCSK

A word on the EC50: it is the concentration giving half of the maximal effect. A low value points to a more potent agent.

The target of data set [1] is von Willebrand factor (VWF) (Macaca fascicularis (cynomolgus monkey)) (UniProt A0A2K5X4G5). Briefly: inhibition of the protein. The note with it: as BT-100, 3' idT, 5' branched 40K PEG; PFA-200 CADP closure time ED50, cynomolgus samples, n=16, 95% CI 0.135-3.599; mean of individual ED50 0.576 ug/ml; protein in an extract; variant of BT-100.
The target in data set [2] is von Willebrand factor (VWF) (Homo sapiens) (UniProt P04275). Briefly: inhibition of the protein. The note with it: protein in an extract, protein details: native VWF in human plasma / whole blood; for functional effect of the aptamer (AUC at 100 nM (baseline 87)): ristocetin-induced whole blood aggregation (Multiplate), 37 C.

As to GCCAGGGACCUAAGACACAUGUCCCUGGC [BT-200], the EC50 in data set [1] amounted to 0.697 µg/mL; in data set [2] (as BT-100, 3' idT, 5' branched 40K PEG, PFA-200 CADP closure time ED50, human samples, n=14, 95% CI 0.086-0.408, mean of individual ED50 0.158 ug/ml, variant of BT-100), 0.187 µg/mL.

In turn, GCCAGGGACCUAAGACACAUGUCCCUGGC [BT-100] displayed a functional effect of the aptamer (AUC at 100 nM (baseline 87)) in data set [2] (2'-OMe (claimed sugar modification), 3' idT (terminal t of SEQ ID NO: 2), 5' NH2 via C6 linker, AUC 5 at 25 nM before arterial block, about 90% inhibition at 25-50 nM) of 2. Turning to GGGACCUAAGACACAUGUCCC [ARC15105], in data set [2] (PEGylated, 3' idT (terminal t), up to 16-fold higher concentration than BT-100 needed for 90% inhibition), the functional effect of the aptamer (AUC at 100 nM (baseline 87)) was determined as 56.
